The target of this test is Activating transcription factor 4 (human (endogenous in DPSCs)) (UniProt P18848). The test is described as follows: affinity purification with mass spectrometry; ATF4 IP from 1 mg DPSC lysate (OM for 3 days compared with control medium), primary antibody or isotype IgG overnight at 4 °C, Pierce Classic Magnetic IP/Co-IP kit, LC-MS/MS.

Chains of the proteins cited; added tags and fusions are not shown.
UniProt P18848: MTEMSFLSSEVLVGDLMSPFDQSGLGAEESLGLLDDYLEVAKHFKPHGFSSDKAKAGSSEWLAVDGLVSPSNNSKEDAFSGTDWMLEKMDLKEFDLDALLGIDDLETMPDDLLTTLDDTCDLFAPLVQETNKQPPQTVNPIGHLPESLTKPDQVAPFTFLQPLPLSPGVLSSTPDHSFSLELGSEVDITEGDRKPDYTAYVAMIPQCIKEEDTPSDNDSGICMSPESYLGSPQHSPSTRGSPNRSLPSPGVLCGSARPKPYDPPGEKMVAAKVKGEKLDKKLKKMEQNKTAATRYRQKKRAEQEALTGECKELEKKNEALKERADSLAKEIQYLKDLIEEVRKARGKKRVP
UniProt Q14974: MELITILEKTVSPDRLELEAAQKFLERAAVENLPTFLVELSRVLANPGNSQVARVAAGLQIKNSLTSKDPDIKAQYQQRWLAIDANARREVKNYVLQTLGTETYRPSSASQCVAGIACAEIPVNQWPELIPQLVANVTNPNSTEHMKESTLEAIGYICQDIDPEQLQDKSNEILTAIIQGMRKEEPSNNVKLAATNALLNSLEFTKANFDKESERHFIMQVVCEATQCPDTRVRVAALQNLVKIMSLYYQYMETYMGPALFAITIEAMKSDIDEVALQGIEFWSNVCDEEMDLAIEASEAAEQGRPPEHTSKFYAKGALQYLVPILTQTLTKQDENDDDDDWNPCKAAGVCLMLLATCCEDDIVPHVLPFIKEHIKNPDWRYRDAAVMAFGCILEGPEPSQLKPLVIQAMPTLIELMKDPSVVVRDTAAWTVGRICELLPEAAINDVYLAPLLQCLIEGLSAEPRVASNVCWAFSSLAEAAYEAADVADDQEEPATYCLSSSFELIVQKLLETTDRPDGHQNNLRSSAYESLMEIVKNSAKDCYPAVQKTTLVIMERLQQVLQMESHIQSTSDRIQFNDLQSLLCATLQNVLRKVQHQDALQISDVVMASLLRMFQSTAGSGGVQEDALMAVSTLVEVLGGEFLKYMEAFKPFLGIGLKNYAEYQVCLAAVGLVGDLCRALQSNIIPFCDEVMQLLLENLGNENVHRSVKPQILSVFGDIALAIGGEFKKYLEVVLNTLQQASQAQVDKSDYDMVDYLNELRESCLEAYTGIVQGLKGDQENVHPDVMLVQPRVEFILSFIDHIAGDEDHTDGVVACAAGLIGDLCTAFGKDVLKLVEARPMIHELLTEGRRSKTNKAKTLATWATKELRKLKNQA

These are yes or no findings as the source states them, for the method shown. Binding seen in cells or lysates may run through a third protein. Here binding means that the protein was enriched with, or labelled near, the bait; the list need not be complete.

As for “Importin subunit beta-1 (from UniProt Q14974 1-876)”, the binding result is “binds”.

Values taken from article PMC11600598.
